61 targets from the supplement of paper PMC12819154, “High-throughput peptide-centric local stability assay extends protein–ligand identification to membrane proteins, tissues and bacteria” (Nature Structural & Molecular Biology, 2025) can be followed below.

Sequences of proteins named here, by UniProt entry; tags and fusion partners are left off. A change or cut given only in a name is not applied to a line headed by its entry.
UniProt Q13425: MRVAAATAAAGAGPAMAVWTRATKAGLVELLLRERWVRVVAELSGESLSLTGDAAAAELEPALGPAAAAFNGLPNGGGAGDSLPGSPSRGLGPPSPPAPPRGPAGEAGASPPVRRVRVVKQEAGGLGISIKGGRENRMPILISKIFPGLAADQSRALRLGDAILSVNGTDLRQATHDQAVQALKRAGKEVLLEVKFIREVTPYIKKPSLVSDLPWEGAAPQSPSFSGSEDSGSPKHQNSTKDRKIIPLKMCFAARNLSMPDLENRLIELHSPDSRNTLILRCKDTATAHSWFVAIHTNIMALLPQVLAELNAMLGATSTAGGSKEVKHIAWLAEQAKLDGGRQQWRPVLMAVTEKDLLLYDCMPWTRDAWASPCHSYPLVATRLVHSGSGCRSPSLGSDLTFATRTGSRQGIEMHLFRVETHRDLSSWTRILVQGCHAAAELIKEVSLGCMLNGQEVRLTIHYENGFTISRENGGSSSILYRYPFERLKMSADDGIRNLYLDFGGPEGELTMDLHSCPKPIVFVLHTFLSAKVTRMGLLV
UniProt Q147U1: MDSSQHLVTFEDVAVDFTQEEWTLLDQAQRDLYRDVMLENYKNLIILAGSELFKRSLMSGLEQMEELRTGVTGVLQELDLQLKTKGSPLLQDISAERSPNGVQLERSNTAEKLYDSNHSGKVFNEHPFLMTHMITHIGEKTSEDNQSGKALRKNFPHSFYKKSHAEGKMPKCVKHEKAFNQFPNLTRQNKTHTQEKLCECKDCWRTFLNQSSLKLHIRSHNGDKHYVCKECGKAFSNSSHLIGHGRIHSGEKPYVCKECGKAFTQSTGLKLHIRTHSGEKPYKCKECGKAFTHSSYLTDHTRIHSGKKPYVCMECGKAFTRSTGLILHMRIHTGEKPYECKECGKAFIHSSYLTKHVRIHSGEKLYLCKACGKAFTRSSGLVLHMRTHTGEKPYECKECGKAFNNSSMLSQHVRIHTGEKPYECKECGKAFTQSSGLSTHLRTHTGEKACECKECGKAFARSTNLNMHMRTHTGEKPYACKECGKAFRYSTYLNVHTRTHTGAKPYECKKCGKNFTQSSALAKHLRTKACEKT
UniProt Q13503: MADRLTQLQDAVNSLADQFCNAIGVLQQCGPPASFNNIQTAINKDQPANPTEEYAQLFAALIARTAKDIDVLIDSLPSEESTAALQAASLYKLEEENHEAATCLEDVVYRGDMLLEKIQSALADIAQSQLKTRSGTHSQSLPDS
UniProt Q14142: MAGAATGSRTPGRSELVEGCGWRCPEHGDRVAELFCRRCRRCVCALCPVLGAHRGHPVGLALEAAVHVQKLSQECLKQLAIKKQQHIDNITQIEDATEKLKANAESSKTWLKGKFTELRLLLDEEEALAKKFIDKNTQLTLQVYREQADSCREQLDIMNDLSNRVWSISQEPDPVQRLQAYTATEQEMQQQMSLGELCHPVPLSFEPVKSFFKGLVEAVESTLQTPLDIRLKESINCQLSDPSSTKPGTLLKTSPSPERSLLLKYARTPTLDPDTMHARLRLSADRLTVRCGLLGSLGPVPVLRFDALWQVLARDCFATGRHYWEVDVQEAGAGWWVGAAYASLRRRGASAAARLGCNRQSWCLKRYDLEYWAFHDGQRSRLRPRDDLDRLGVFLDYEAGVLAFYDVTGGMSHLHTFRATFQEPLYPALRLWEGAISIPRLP
UniProt Q14CB8: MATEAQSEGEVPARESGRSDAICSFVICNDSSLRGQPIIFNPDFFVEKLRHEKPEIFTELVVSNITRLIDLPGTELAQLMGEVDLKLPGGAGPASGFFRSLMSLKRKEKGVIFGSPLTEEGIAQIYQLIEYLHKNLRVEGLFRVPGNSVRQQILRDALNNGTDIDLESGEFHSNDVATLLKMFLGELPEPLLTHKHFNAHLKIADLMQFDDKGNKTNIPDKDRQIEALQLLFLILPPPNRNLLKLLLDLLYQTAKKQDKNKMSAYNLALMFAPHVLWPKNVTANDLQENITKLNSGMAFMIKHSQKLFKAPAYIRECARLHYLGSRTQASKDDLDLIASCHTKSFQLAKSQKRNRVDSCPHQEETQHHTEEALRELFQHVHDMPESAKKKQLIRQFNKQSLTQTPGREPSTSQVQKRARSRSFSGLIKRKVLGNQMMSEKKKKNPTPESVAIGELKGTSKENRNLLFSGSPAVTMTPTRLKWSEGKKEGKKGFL
UniProt Q14677: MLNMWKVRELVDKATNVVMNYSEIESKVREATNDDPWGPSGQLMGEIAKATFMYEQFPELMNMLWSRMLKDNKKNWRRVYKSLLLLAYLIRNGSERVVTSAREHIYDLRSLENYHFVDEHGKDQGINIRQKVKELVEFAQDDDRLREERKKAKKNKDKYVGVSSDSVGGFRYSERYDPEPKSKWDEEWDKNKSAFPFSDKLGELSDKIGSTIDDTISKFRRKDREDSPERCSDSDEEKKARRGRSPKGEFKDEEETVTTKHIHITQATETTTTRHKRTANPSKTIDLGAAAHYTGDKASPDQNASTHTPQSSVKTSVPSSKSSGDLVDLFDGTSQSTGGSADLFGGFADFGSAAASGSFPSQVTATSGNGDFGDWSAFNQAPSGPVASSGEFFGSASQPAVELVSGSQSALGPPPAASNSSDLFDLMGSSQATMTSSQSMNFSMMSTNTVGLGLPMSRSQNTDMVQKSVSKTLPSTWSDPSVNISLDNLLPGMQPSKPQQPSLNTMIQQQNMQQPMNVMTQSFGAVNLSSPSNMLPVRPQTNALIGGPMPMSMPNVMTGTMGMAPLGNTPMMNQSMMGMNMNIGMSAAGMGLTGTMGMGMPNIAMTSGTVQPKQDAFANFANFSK
UniProt Q13769: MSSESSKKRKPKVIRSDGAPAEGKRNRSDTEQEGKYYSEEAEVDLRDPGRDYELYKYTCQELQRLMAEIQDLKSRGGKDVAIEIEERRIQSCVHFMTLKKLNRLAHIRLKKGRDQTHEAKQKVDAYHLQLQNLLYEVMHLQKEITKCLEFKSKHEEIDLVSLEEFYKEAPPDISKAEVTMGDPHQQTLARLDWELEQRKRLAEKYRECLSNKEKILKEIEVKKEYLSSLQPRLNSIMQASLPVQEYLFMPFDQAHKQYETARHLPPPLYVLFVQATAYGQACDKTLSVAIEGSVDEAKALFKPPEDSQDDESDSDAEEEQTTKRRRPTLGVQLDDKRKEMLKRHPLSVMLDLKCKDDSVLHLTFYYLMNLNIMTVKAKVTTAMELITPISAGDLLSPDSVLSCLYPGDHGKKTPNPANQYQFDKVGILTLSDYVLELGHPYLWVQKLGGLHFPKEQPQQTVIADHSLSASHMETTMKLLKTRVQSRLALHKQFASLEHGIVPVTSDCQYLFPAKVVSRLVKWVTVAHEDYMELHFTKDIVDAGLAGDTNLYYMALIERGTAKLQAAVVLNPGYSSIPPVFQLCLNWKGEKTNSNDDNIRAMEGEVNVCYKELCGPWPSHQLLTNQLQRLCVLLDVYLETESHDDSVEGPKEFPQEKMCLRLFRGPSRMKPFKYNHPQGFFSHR
UniProt Q14558: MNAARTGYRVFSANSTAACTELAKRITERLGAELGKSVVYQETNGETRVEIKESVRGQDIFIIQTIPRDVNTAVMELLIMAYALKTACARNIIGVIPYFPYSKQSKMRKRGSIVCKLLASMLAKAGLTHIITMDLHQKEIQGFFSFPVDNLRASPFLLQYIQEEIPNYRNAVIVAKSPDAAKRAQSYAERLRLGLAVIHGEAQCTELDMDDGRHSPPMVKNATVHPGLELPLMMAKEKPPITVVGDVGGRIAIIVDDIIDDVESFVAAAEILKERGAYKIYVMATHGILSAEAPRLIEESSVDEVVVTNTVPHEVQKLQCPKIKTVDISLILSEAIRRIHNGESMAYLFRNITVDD
UniProt Q14209: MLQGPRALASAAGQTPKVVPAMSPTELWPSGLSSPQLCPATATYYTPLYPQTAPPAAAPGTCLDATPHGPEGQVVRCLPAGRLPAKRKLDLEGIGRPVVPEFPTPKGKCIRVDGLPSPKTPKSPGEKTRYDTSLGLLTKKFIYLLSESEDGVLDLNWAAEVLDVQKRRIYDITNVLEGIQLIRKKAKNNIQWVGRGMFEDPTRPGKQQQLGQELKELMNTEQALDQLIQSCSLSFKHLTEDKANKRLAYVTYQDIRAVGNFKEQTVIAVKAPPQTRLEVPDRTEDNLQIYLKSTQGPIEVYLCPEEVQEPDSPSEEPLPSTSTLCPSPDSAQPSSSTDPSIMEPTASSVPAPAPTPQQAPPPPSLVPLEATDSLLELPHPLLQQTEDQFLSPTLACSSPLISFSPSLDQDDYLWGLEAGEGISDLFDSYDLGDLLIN
UniProt Q14207: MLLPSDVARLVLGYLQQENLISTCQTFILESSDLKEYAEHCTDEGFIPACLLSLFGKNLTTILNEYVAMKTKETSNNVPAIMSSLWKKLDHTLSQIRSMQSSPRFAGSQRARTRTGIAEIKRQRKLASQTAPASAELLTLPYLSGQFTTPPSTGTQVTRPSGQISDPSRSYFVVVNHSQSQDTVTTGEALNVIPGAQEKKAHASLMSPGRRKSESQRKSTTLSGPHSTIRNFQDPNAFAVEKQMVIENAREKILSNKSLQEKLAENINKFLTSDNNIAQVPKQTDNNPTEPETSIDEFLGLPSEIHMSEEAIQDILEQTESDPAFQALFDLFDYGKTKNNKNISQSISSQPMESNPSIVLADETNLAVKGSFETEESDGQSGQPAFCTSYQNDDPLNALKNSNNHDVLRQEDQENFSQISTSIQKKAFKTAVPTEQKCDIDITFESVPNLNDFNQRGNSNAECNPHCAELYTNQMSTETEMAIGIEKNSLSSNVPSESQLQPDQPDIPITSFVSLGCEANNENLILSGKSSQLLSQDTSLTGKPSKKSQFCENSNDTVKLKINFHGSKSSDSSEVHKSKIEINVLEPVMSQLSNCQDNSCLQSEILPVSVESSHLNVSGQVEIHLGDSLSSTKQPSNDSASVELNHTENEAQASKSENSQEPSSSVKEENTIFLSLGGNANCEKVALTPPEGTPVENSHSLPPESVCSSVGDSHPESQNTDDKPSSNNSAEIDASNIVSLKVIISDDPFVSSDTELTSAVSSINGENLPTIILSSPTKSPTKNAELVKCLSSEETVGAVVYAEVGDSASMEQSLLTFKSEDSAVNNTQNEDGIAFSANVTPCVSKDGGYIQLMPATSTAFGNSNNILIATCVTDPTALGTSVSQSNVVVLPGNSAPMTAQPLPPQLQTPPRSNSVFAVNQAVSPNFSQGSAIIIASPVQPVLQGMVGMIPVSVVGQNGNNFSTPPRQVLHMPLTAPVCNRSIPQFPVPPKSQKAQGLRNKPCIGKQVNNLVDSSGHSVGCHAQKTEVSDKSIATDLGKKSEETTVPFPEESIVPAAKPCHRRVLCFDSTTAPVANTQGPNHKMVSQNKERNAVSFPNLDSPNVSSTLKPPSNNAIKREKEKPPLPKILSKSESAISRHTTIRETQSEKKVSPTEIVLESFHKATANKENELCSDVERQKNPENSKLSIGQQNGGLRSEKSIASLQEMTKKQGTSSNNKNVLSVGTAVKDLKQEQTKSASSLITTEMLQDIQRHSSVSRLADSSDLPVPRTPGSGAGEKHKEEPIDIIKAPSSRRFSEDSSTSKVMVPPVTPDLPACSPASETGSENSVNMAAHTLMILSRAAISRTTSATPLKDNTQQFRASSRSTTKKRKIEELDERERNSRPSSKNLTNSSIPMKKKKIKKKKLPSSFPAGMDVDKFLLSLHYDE
UniProt Q13541: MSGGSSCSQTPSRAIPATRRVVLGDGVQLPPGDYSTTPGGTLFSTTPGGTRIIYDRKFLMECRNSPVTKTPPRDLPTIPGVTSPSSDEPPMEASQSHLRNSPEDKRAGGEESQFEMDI
UniProt Q13112, whole entry, looked up: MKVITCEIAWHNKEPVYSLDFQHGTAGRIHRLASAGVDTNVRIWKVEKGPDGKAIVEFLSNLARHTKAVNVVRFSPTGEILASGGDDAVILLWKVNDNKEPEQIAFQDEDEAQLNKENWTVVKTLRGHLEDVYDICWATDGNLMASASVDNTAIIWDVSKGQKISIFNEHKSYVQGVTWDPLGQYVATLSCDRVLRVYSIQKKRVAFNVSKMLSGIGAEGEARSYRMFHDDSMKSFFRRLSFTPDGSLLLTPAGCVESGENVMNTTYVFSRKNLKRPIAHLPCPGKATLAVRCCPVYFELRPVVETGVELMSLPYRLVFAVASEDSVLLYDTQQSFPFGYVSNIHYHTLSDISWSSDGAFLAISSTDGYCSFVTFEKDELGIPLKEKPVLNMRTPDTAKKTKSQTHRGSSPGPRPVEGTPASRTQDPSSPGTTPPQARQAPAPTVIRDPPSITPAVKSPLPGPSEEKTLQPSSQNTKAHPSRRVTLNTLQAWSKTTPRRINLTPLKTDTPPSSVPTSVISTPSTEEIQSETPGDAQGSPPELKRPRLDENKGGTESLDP
UniProt Q15005: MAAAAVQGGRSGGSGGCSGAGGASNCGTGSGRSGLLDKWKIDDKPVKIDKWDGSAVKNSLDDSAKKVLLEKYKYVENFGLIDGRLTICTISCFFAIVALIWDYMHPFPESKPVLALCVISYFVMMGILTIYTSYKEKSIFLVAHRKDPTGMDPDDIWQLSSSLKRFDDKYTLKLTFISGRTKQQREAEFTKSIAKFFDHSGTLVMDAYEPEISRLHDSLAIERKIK

This is one part of the list. Most values lie at the level of the controls, where differences are scatter.

Compound in this experiment: Cc1nc(Nc2ncc(C(=O)Nc3c(C)cccc3Cl)s2)cc(N2CCN(CCO)CC2)n1 [dasatinib]
The experiment can be described thus: log2 fold change of tryptic peptide abundance, ligand vs vehicle (limited proteolysis) (log2 ratio); higher = more trypsin-susceptible (destabilized). As to conditions: ligand concentration: 5 uM; sample: K562 cleared lysate.

“TRIM28 (peptide sequence: GRVLVNDAQKVTEGQQER, peptide start residue: 310) (UniProt Q13263)”: the log2 fold change came to 0.185.
Under “IQGAP2 (peptide sequence: TLEQTGHVSSENK, peptide start residue: 1380) (UniProt Q13576)” stands 0.933; under “UniProt Q13247 (peptide sequence: QAGEVTYADAHKER, peptide start residue: 132)”, -0.122; under “TRIM25 (peptide sequence: DEFEFLEK, peptide start residue: 303) (UniProt Q14258)”, -0.335.
Under “CHD4 (peptide sequence: HDYWLLAGIINHGYAR, peptide start residue: 1733) (UniProt Q14839)” stands -0.91; under “CTBP1 (peptide sequence: IGSGFDNIDIK, peptide start residue: 98) (UniProt Q13363)”, -0.102; under “SNTB2 (peptide sequence: DAWASPCHSYPLVATR, peptide start residue: 368) (UniProt Q13425)”, 0.578.
Under “UniProt Q14593 (peptide sequence: GPPSVAPLPAGIGR, peptide start residue: 7)” stands 0.0142.
On to “RASA3 (peptide sequence: TKYGSQEHPIGDK, peptide start residue: 805) (UniProt Q14644)”, for which the log2 fold change turned out to be 0.288.
Under “UniProt Q147U1 (peptide sequence: THTGEKPYECK, peptide start residue: 272)” stands 0.103.
Under “ADAM9 (peptide sequence: NQANPSRQPGSVPR, peptide start residue: 742) (UniProt Q13443)” stands -0.858; under “PPP2R5C (peptide sequence: EREEAWVKIENLAK, peptide start residue: 425) (UniProt Q13362)”, 0.349.
Under “CBLB (peptide sequence: CTGPLANSLSEK, peptide start residue: 686) (UniProt Q13191)” stands -0.308; under “ZNF460 (peptide sequence: SNFVLHNK, peptide start residue: 293) (UniProt Q14592)”, 0.237; under “CALCOCO2 (peptide sequence: QQELMDENFDLSKR, peptide start residue: 300) (UniProt Q13137)”, 0.496.
On to “TTLL12 (peptide sequence: HFTVMNYDPDVVLK, peptide start residue: 511) (UniProt Q14166)”, for which the log2 fold change is -0.336.
Under “PRPF4B (peptide sequence: ELEFLKK, peptide start residue: 732) (UniProt Q13523)” stands 0.241.
Under “UniProt Q14241 (peptide sequence: MAFVNSVAKPPR, peptide start residue: 689)” stands -0.236; under “MED21 (peptide sequence: SGTHSQSLPDS, peptide start residue: 134) (UniProt Q13503)”, -0.0737; under “ARFRP1 (peptide sequence: RDCLTQACSALTGK, peptide start residue: 161) (UniProt Q13795)”, 0.543.
For the target “SQLE (peptide sequence: ALLSSGAVLYK, peptide start residue: 546) (UniProt Q14534)”, the log2 fold change is -0.194.
Under “BLMH (peptide sequence: AQHVFQHAVPQEGKPITNQK, peptide start residue: 49) (UniProt Q13867)” stands 0.221.
Under “TRIM14 (peptide sequence: RYDLEYWAFHDGQR, peptide start residue: 366) (UniProt Q14142)” stands -0.379; under “SMAD4 (peptide sequence: QGGESETFAKR, peptide start residue: 28) (UniProt Q13485)”, 0.798.
Under “UniProt Q14451 (peptide sequence: HLHPSCLGSPPLR, peptide start residue: 353)” stands -0.96; under “ARHGAP19 (peptide sequence: HEKPEIFTELVVSNITR, peptide start residue: 51) (UniProt Q14CB8)”, -0.591.
Turning to “CLINT1 (peptide sequence: GEFKDEEETVTTK, peptide start residue: 248) (UniProt Q14677)”, the log2 fold change is -0.224.
Under “UniProt Q14141 (peptide sequence: KSLDDEVNAFK, peptide start residue: 387)” stands -0.471.
As to “MTMR2 (peptide sequence: KVEELQR, peptide start residue: 610) (UniProt Q13614)”, the log2 fold change was -0.265.
As to “TSTA3 (peptide sequence: SSGSALTVWGTGNPRR, peptide start residue: 200) (UniProt Q13630)”, the log2 fold change was 0.845.
“UniProt Q13106 (peptide sequence: VHTGEKPYECTECGK, peptide start residue: 538)”: the log2 fold change is -0.0407.
Under “AP3B2 (peptide sequence: KLLQMQPAQHGEIIK, peptide start residue: 467) (UniProt Q13367)” stands 0.218.
In the case of “DGKZ (peptide sequence: TICHYIVEAGASLMK, peptide start residue: 872) (UniProt Q13574)”, the log2 fold change turned out to be 0.0902.
Under “MCM6 (peptide sequence: ELRDEEQTAESIK, peptide start residue: 314) (UniProt Q14566)” stands 0.213.
Under “THOC5 (peptide sequence: RIQSCVHFMTLK, peptide start residue: 88) (UniProt Q13769)” stands 0.785.
For “PRPSAP1 (peptide sequence: EKPPITVVGDVGGR, peptide start residue: 250) (UniProt Q14558)”, the log2 fold change is -0.279.
Under “UniProt Q14209 (peptide sequence: YDTSLGLLTK, peptide start residue: 179)” stands 0.362; under “NPAT (peptide sequence: SSQLLSQDTSLTGKPSK, peptide start residue: 530) (UniProt Q14207)”, 0.465; under “MTMR3 (peptide sequence: AGIEIQEGKEDPLLEKESR, peptide start residue: 710) (UniProt Q13615)”, 0.288.
As for “EIF4EBP1 (peptide sequence: KFLMECR, peptide start residue: 57) (UniProt Q13541)”, the log2 fold change is -0.0935.
Under “HNRNPD (peptide sequence: HSEAATAQREEWK, peptide start residue: 86) (UniProt Q14103)” stands 0.0996; under “SMC1A (peptide sequence: RIDEINK, peptide start residue: 469) (UniProt Q14683)”, 0.182.
Regarding “SNW1 (peptide sequence: GPPSPPAPVMHSPSR, peptide start residue: 221) (UniProt Q13573)”, the log2 fold change came out at 0.399.
Take “GNL2 (peptide sequence: FQEEMDTVMKDPYKVVMK, peptide start residue: 95) (UniProt Q13823)”: the log2 fold change is -0.16.
Under “PSME4 (peptide sequence: VMLQHELR, peptide start residue: 944) (UniProt Q14997)” stands -0.485; under “SQSTM1 (peptide sequence: DHRPPCAQEAPR, peptide start residue: 108) (UniProt Q13501)”, 0.0594; under “CIRBP (peptide sequence: SGGYGGSRDYYSSR, peptide start residue: 132) (UniProt Q14011)”, 0.64.
Turning to “FKBP8 (peptide sequence: SCSLVLEHQPDNIK, peptide start residue: 294) (UniProt Q14318)”, the log2 fold change was found to be 0.103.
Under “CHAF1B (peptide sequence: TLQPSSQNTK, peptide start residue: 468) (UniProt Q13112)” stands 0.105.
For “UBXN2B (peptide sequence: EHGAVPLNEATR, peptide start residue: 94) (UniProt Q14CS0)”, the log2 fold change came to 0.0561.
Under “BYSL (peptide sequence: LNFHLYMALKK, peptide start residue: 268) (UniProt Q13895)” stands 0.181.
Under “NFIX (peptide sequence: SITSPPSTSTTK, peptide start residue: 265) (UniProt Q14938)” stands 0.122; under “NFATC2 (peptide sequence: TSLAEDSCLGR, peptide start residue: 224) (UniProt Q13469)”, 0.153; under “RRP1B (peptide sequence: SSTATHPPGPAVQLNKTPSSSK, peptide start residue: 661) (UniProt Q14684)”, 0.524.
Under “PPP2R5D (peptide sequence: LFDDCTQQYKAEK, peptide start residue: 480) (UniProt Q14738)” stands 0.146.
Regarding “UBE4A (peptide sequence: SPLTMDQIRPNTELK, peptide start residue: 1034) (UniProt Q14139)”, the log2 fold change was -0.279.
Under “EIF4EBP2 (peptide sequence: KHAVGDDAQFEMDI, peptide start residue: 107) (UniProt Q13542)” stands 0.105; under “IDI1 (peptide sequence: PEINTNHLDK, peptide start residue: 2) (UniProt Q13907)”, -0.0833.
Consider “NNT (peptide sequence: NIPQGAPVK, peptide start residue: 443) (UniProt Q13423)”, for which the log2 fold change was -0.478.
Under “SPCS2 (peptide sequence: SGLLDKWK, peptide start residue: 33) (UniProt Q15005)” stands 0.0593; under “UniProt Q15006 (peptide sequence: YASWAASQINR, peptide start residue: 256)”, 0.165.
